Literature values, collected in patent US20230124095A1 (AMORPHICAL LTD., priority 2020, published 2023).
At least one compound was matched to its structure with a doubt left.

System: COVID-19
Conditions: Covid-19 patients receiving Remdesivir; 66% in the placebo arm; data published in the NEJM November 2020; cited from earlier work

For `CCC(CC)COC(=O)[C@H](C)N[P@](=O)(OC[C@H]1O[C@@](C#N)(c2ccc3c(N)ncnn23)[C@H](O)[C@@H]1O)Oc1ccccc1` [Remdesivir], the “% of Covid-19 patients that improved by 1 point on the Severity scale” value is listed as “improved by 1 point on the Severity scale was 75% versus 66% in the”.
